The target in this experiment is PD1-HA tag fusion protein (Arabidopsis thaliana) (UniProt Q84WN0). Kind of experiment: co-IP; total leaf protein of two-week-old transgenic seedlings expressing PD1-HA (wild type as control); Anti-HA-tag mAb-Magnetic Beads; blots with antibodies for HA and PEP-β.

Sequences of proteins named here, by UniProt entry; tags and fusion partners are left off. A change or cut given only in a name is not applied to a line headed by its entry.
UniProt Q84WN0: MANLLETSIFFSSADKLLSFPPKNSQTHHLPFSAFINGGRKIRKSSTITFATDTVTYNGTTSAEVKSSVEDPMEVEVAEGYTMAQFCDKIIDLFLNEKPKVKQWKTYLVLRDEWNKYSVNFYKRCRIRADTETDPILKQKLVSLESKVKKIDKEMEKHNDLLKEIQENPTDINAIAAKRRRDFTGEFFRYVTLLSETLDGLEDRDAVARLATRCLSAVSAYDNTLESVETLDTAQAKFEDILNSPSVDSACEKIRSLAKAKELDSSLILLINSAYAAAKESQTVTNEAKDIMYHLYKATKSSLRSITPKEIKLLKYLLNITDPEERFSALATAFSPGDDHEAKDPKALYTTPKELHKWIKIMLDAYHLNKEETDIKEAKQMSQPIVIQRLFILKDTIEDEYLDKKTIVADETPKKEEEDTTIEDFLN

The source of these data is article PMC8705867.

Results are given in words; binding and its absence hold for the method and conditions named. Binding seen in cells or lysates may run through a third protein. A result given as binding can be weak or reduced; the word gives no strength.

B1: PEP core subunit β (protein, UniProt P50546 1-1072)
chain: MLGDEKEGTSAIPGFNQIQFEGFYRFIDQGLIEELAKFPKIEDIDHEIEFQLFVETYQLVEPLIKERDAVYESLTYSSELYVSAGLIWKTSRNMQEQRIFIGNIPLMNSLGTSIVNGIYRIVINQILQSPGIYYQSELDHNGISVYTGTIISDWGGRLELEIDKKARIWARVSRKQKISILVLSSAMGLNLREILENVCYPEIFLSFLTDKEKKKIGSKENAILEFYQQFSCVGGDPIFSESLCKELQKKFFHQRCELGRIGRRNINWRLNLNIPQNNIFLLPRDVLAAADHLIGMKFGMGTLDDMNHLKNKRIRSVADLLQDQLGLALARLENVVKGTISGAIRHKLIPTPQNLVTSTPLTTTYESFFGLHPLSQVLDRTNPLTQIVHGRKLSYLGPGGLTGRTANFRIRDIHPSHYGRICPIDTSEGINVGLIGSLSIHARIGDWGSLESPFYELFEKSKKARIRMLFLSPSQDEYYMIAAGNSLALNRGIQEEQAVPARYRQEFLTIAWEEVHLRSIFPFQYFSIGASLIPFIEHNDANRALMSSNMQRQAVPLSRSEKCIVGTGLERQVALDSGVPAIAEHEGKILYTDTEKIVFSGNGDTLSIPLIMYQRSNKNTCMHQKPQVRRGKCIKKGQILADGAATVGGELALGKNILVAYMPWEGYNFEDAVLISECLVYGDIYTSFHIRKYEIQTHVTTQGPERITKEIPHLEGRLLRNLDKNGIVMLGSWVETGDILVGKLTPQVAKESSYAPEDRLLRAILGIQVSTSKETCLKLPIGGRGRVIDVRWVQKKGGSSYNPEIIRVYISQKREIKVGDKVAGRHGNKGIISKILPRQDMPYLQDGRPVDMVFNPLGVPSRMNVGQIFECSLGLAGSLLDRHYRIAPFDERYEQEASRKLVFSELYEASKQTANPWVFEPEYPGKSRIFDGRTGDPFEQPVIIGKPYILKLIHQVDDKIHGRSSGHYALVTQQPLRGRSKQGGQRVGEMEVWALEGFGVAHILQEMLTYKSDHIRARQEVLGTTIIGGTIPKPEDAPESFRLLVRELRSLALELNHFLVSEKNFQINRKEV
Regarding B1, the binding entry is “binds”.
